Measurements taken from PubChem BioAssay AID2551 (National Center for Advancing Translational Sciences (NCATS), 2010).
About 17,000 (5.5%) of roughly 310,000 compounds were called active. The shares of active, inactive and inconclusive entries below differ from those in the screen. Calls come from the whole dose curve; as a rule, active = well fitted inhibition curve with a large enough effect; inconclusive = small, poorly fitted or top-dose-only effect, or effect the other way; inactive = no such curve, though single readings can be large or run the other way. Potencies of inconclusive entries are doubtful fits and often do not repeat.

The chains behind the UniProt entries cited, without tags or fusion partners. Where a name states a change or a piece, a line headed by the entry shows the natural chain unless it says otherwise.
UniProt P51450: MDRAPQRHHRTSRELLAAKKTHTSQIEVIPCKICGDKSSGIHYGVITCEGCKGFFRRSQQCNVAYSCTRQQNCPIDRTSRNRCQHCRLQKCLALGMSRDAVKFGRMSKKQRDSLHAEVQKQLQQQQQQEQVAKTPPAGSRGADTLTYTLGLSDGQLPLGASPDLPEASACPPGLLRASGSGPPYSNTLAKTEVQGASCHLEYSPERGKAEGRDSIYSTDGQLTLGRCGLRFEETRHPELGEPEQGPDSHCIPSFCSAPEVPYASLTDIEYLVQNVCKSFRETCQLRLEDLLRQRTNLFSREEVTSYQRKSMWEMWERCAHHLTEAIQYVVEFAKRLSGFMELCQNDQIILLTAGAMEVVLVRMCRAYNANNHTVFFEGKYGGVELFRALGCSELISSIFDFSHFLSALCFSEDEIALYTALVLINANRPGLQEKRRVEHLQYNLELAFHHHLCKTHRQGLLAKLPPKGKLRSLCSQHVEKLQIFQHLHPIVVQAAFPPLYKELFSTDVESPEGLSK

Target: Nuclear receptor ROR-gamma (Mus musculus) (UniProt P51450)
Assay: qHTS for inhibitors of ROR gamma transcriptional activity; note: nearly all actives have a fitted effect of over 60% in size
Conditions: Drosophila S2 Gal4-RORgamma UAS-luciferase reporter, 20 h; activity change, negative = inhibition: at 53.6 µM (top of the series)
Procedure, shortened: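 Using a luciferase readout, inhibitors were identified by reduced reporter activity in Drosophila cells coexpressing a copper-inducible Gal4–ROR gamma fusion and UAS-driven Photinus luciferase, incubated 20 hr after 700 uM copper sulfate.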
% is set by controls: 0 for no effect and ±100 for the full control effect; potency is the fitted concentration of half-maximal effect.

Potency, inconclusive:
CCNC(=S)NCc1ccc2[nH]c(C)cc2c1 25.1 µM [inhibitor, single point]
N#CC1=C(N)C2=CCCC[C@H]2[C@H](c2ccc(Br)cc2)C1(C#N)C#N 15.8 µM [inhibitor, single point]
Cc1cc(C(=O)Nc2ncn[nH]2)ccc1[N+](=O)[O-] 35.5 µM [inhibitor, single point]
O=C(Cn1nc(C(=O)O)c2ccccc2c1=O)Nc1nc(-c2ccccc2)cs1 11.2 µM [activator, single point]
Cc1nc(-c2ccc(NC(=O)C3CCCCC3)cc2)cs1 1.58 µM [inhibitor, partial curve]
O=C(NNc1cc(C(F)(F)F)nc2ccccc12)Nc1cccc(Cl)c1 0.501 µM [activator, full curve, poor fit]
COc1ccc(CCN2C(=S)N(C)C(=O)C2CC(=O)Nc2ccc(OC)cc2)cc1 (centres undefined) 14.1 µM [activator, single point]
Nc1ccc(-c2nc3ccc(N)cc3[nH]2)cc1 12.6 µM [inhibitor, single point]
CCc1nnc(N/N=C/c2ccccc2Cl)n1N 20 µM [inhibitor, single point]
CC(=O)OC12CC3CC(C1)C(=NO)C(C3)C2 10 µM [inhibitor, partial curve, poor fit]
O=C1/C(=C/c2ccc(O)c(O)c2)Oc2ccccc21 15.8 µM [inhibitor, single point]
COC(=O)c1ccc(NC(=O)c2ccc(N(C)S(C)(=O)=O)cc2)cc1 35.5 µM [activator, single point]
C=CCNC(=S)N(Cc1ccccc1)Cc1ccccc1 35.5 µM [inhibitor, single point]
CC(C)(C)C(=O)/C=C(N)/C=C/c1ccccc1 0.0282 µM [activator, full curve, poor fit]
C[C@@H](NC(=O)OC(C)(C)C)c1nnc(S(=O)(=O)Cc2ccccc2)o1 7.08 µM [inhibitor, full curve, poor fit]
Cc1ccc(S(=O)(=O)Oc2ccccc2/C=N/NC(N)=S)cc1 6.31 µM [inhibitor, single point]
CC(NC(=O)CSc1cccc(C(F)(F)F)c1)c1ccccc1 (centres undefined) 10 µM [activator, partial curve]
O=C(NNC(=O)c1cc([N+](=O)[O-])ccc1Cl)c1cccs1 35.5 µM [inhibitor, single point]
COc1ccccc1CNC(=O)c1ccc(-c2ccccc2Cl)o1 15.8 µM [activator, single point]
Cc1ccccc1/C(N)=N/OC(=O)N1c2ccccc2Sc2ccccc21 31.6 µM [inhibitor, single point]
CCN(C(=O)CCC(=O)N(CC)c1ccccc1)c1ccccc1 11.2 µM [activator, partial curve]
CC(=O)C1=C(C)OC(N)=C(C#N)C1c1ccncc1 (centres undefined) 17.8 µM [inhibitor, single point]
CCOc1ccc(N(C)S(=O)(=O)c2cc(-c3cc(C)no3)ccc2C(C)C)cc1 31.6 µM [activator, single point]
Cc1ccc(OCC(=O)N/N=C\c2cccn2C)c([N+](=O)[O-])c1 35.5 µM [activator, single point]
Cc1ccsc1/C=C1\CCc2ccccc2C1=O 14.1 µM [inhibitor, single point]
COc1ccc(/C=N\NC(=O)c2ccccc2OC)cc1COc1ccccc1C 0.398 µM [activator, full curve, poor fit]
Cc1ccccc1-c1ccc2ncnc(N3CCOCC3)c2c1 17.8 µM [activator, single point]
CCC(NC(=O)NCc1cccnc1)(C(F)(F)F)C(F)(F)F 4.47 µM [activator, single point]
O=C(NCCN1C(=O)S/C(=C\c2ccc(Cl)c(Cl)c2)C1=O)c1ccc2c(c1)C(=O)N(Cc1ccncc1)C2=O 22.4 µM [activator, single point]
FC(F)(F)c1ccccc1Nc1nccs1 25.1 µM [inhibitor, single point]
Cc1ccccc1NC(=S)NNC(=O)c1ccoc1C 8.91 µM [inhibitor, partial curve]
CCN(C(=S)NCCOC)c1cccc2ccccc12 17.8 µM [inhibitor, partial curve, poor fit]
COc1cc(OC)cc(C(=O)N[C@H](C(=O)OCC(=O)c2ccc(F)cc2)C(C)C)c1 11.2 µM [activator, partial curve]
O=[N+]([O-])c1ccc(N=Nc2ccc(O)cc2O)cc1 11.2 µM [inhibitor, partial curve]
COCc1nn2c(N)c(C#N)cnc2c1-c1ccccc1 31.6 µM [inhibitor, single point]
CCC(C)NC(=O)COc1ccc(Br)c(C)c1 (centres undefined) 35.5 µM [activator, single point]
CCc1cc(CNC(=O)c2ccc(OC)c(OC3CCN(C(C)C)CC3)c2)on1 4.47 µM [inhibitor, partial curve]
O=S(=O)(Nc1cnc2ccccc2c1)N1CCCCCC1 12.6 µM [activator, partial curve]
Cc1cc(N2CCN(C)CC2)nc2ccc(NC(=S)NCCCN3CCc4ccccc4C3)cc12 35.5 µM [inhibitor, single point]
CSc1nnc(NC(=O)c2cc3ccccc3oc2=O)s1 2 µM [activator, full curve, poor fit]
O=[N+]([O-])c1ccc(O)c(Nc2ncnc3ccc(Br)cc23)c1 14.1 µM [activator, single point]
O=C(NCc1ccccc1)Nc1cccn(Cc2ccc(F)cc2)c1=O 11.2 µM [activator, partial curve]
CCC1SC(=NC(=O)c2ccc(Cl)c(Cl)c2)NC1=O (centres undefined) 35.5 µM [inhibitor, single point]
O=C(NCCCN1CCOCC1)C(=O)N/N=C/c1ccccc1O 28.2 µM [inhibitor, single point]

Already shown: 2 of the compounds above.
Potency, inconclusive:
O=C1/C(=C/c2ccc(O)c(O)c2)Oc2ccccc21 15.8 µM [inhibitor, single point]
COC(=O)c1ccc(NC(=O)c2ccc(N(C)S(C)(=O)=O)cc2)cc1 35.5 µM [activator, single point]

Next part.

Potency, inactive:
CC(C)c1ccc2nc(N)sc2c1
CCOC(=O)CSc1nnc(-c2ccccc2OC)o1
COc1ccccc1N(CC1CO1)S(=O)(=O)c1ccccc1 (centres undefined)
O=C(CCCCn1c(=O)[nH]c2ccccc2c1=O)NCCC1=CCCCC1
O=C(NCc1ccccc1)C(c1ccco1)N(C(=O)c1csnn1)c1ccccc1F (centres undefined)
COc1cc(-n2ccnc2SC)c(Cl)cc1Cl
COc1ccc(-n2c(C)nc(=O)c(-c3ccccc3)c2C)cc1
CCCCCCCNC(=O)C1(CC2CC(c3ccc(Cl)cc3)=NO2)CCN(C(=O)c2ccccc2)CC1 (centres undefined)
O=C(COc1ccccc1)N/N=C/c1ccc2c(c1)OCO2
CC(C)c1ccccc1N1CC(C(=O)O)CC1=O (centres undefined)
CC1(C)CC(/C=C/c2ccccc2)=Nc2ccccc2N1
C=CCN1C(=O)c2ccccc2NC1c1cc(Br)cs1 (centres undefined)
COc1ccc(C(=O)Cn2c(Cl)nc3c2c(=O)n(C)c(=O)n3C)cc1
O=C1C(c2[nH]c3ccc(S(=O)(=O)O)cc3c2O)=Nc2ccc(S(=O)(=O)O)cc21
Cc1ccccc1NC(=O)c1ccc(S(=O)(=O)N(C)C)cc1
Cc1cc(C)c(S(=O)(=O)N2CCN(c3ccc([N+](=O)[O-])c(-n4nc(C)cc4C)c3)CC2)c(C)c1

Sorted by molecular weight (ascending): part of the list above
Potency, inactive:
CC1(C)CC(/C=C/c2ccccc2)=Nc2ccccc2N1
C=CCN1C(=O)c2ccccc2NC1c1cc(Br)cs1 (centres undefined)
COc1ccc(C(=O)Cn2c(Cl)nc3c2c(=O)n(C)c(=O)n3C)cc1

Next part:

Potency, active:
COc1ccc(NC(=S)N2CCN(Cc3ccccc3)CC2)cc1 11.2 µM
COc1cc(C(=O)N/N=C/c2ccsc2C)cc(OC)c1OC 12.6 µM
Cc1cc(C(=O)N/N=C\c2cc(C(C)(C)C)c(O)c(C(C)(C)C)c2)n[nH]1 6.31 µM
O=C(c1ccc(Br)cc1)C(CN1CCOCC1)c1ccccc1 (centres undefined) 15.8 µM
Cc1ccccc1CC1S/C(=N/N=C/c2ccco2)NC1=O (centres undefined) 0.447 µM
CCOc1ccccc1NC(=O)/C=C/C(N)=O 4.47 µM
COc1cc(OC)c(C2=NOC(C(=O)N3CCCc4ccccc43)C2)cc1Cl (centres undefined) 5.62 µM
O=C1C2CCCN2C(c2ccc(Cl)cc2)N1c1nccs1 (centres undefined) 12.6 µM
Cc1cccc(NC(=O)CCC(=O)N/N=C/c2cc([N+](=O)[O-])ccc2O)c1 8.91 µM
COc1ccc(/C=C/C(=O)CC(=O)/C=C/c2cccc(O)c2OC)cc1O 6.31 µM
CCCN1C(=O)/C(=C/c2ccc(C)s2)NC1=S 5.62 µM
CC/C(=N\NC(=O)c1ccc(-c2ccccc2)cc1)C12CC3CC(CC(C3)C1)C2 22.4 µM
O=C(O)c1ccc(N/N=C/c2ccc3ncccc3c2)cc1 0.398 µM

Activity change, negative = inhibition, inconclusive:
NC(=O)c1ccc(C(F)(F)F)n(Cc2c(Cl)cccc2Cl)c1=O 45.2% [activator]
